Measurements as given in PMC5602382.
Results are given in words; binding and its absence hold for the method and conditions named. In cells and extracts the contact can be indirect. These calls come from enrichment with a bait or labelling near it, and not all partners need be listed.

Amino acid sequences for entries named in this document (tags omitted).
UniProt P22392: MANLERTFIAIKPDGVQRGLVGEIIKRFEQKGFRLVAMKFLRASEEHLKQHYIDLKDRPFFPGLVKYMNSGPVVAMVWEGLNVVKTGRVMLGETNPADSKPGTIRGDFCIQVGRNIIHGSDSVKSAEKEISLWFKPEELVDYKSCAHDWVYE
UniProt Q13547: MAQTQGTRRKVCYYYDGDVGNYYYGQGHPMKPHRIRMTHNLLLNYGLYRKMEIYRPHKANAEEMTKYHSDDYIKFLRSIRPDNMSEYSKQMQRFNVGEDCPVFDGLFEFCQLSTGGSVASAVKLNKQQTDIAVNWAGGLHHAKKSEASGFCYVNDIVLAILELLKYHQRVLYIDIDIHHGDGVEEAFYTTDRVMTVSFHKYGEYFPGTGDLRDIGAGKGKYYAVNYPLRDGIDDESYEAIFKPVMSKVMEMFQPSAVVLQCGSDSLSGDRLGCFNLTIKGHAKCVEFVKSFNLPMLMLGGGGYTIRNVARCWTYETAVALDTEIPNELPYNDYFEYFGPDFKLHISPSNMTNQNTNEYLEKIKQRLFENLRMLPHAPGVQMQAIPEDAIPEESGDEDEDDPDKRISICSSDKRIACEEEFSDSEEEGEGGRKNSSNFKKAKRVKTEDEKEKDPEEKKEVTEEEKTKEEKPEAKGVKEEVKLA

Target: non-metastatic 2 (NME2) (human (endogenous in HT1080)) (UniProt P22392)
Assay: affinity purification with mass spectrometry; immunoprecipitation with anti-NME2 antibody from nuclear extract of HT1080 cells, SDS-PAGE bands, LC-MS/MS, 1% false discovery rate

HDAC1 (from UniProt Q13547 1-482)
binding: binds
